This passage reports survivor count and T/C results from PubChem BioAssay AID330 (DTP/NCI, 2004).

The assay relates to P388 leukemia ip, CD2F1 mice, survival T/C. In words: NCI In Vivo Anticancer Drug Screen. Data for tumor model P388 Leukemia (intraperitoneal) in CD2F1 (CDF1) mice. Conditions: T/C endpoint: median survival time, higher T/C = longer survival.
Where [1] appears, read: dose: 100.0 mg/kg/injection, schedule: Q01DX005 (ip), vehicle: Klucel (hydroxypropylcellulose) (HPC).
The mark [2] stands for this setting: dose: 200.0 mg/kg/injection, schedule: Q01DX005 (ip), vehicle: Klucel (hydroxypropylcellulose) (HPC).
[3] abbreviates: dose: 400.0 mg/kg/injection, schedule: Q04DX003 (ip), vehicle: saline.
Setting [4] is: dose: 200.0 mg/kg/injection, schedule: Q01DX005 (ip), vehicle: saline with Tween-80.
Setting [5] is: dose: 200.0 mg/kg/injection, schedule: Q01DX009 (ip), vehicle: Klucel (hydroxypropylcellulose) (HPC).
Where [6] appears, read: dose: 50.0 mg/kg/injection, schedule: Q01DX005 (ip), vehicle: Klucel (hydroxypropylcellulose) (HPC).
[7] abbreviates: dose: 200.0 mg/kg/injection, schedule: Q01DX009 (ip), vehicle: saline with Tween-80.
Where [8] appears, read: dose: 100.0 mg/kg/injection, schedule: Q01DX009 (ip), vehicle: saline with Tween-80.
Where [9] appears, read: dose: 240.0 mg/kg/injection, schedule: Q01DX005 (ip), vehicle: saline + Tween-80 + alcohol.

The structures appear in SMILES notation. The list does not hold the whole screen: it is rich in T/C values a quarter to a half above the control, in often repeated tests (any T/C) and in doses without a T/C. Other doses and runs of a compound stand elsewhere. T/C gives the treated animals as a percentage of the vehicle group. Some entries give survivors of the animals treated and no T/C: the source files T/C as zero there, which appears to mark a toxic dose or a test without result, not a measured value. Some survivor counts are full or nearly so, which does not show that the dose was tolerated: the source hardly ever lists a survival T/C far under the control, and the zero likely stands for such cases as well. Counts of survivors are from the toxicity check (mostly the fifth day) where no day follows; animals may have died later. Schedules are NCI's codes, read here as Q, the interval in days (D) or hours (H), X, the number of doses. Some structures stand for samples that the source files as different forms (salt, stereo form or complex); doses refer to the form tested. Some entries hold several experiments; the values are given in rising order. Where survival is the endpoint, this PubChem deposit counts one and a half times the control or more as active, and values a quarter to a half above the control carry no call in these data; other NCI protocols may use other cut-offs. Some T/C values carry the count of animals alive at the toxicity check (mostly the fifth day); where none is given, no animal had died by that day.

On to `COc1cc(OC)cc(N2C(N)=NC(N)=NC2(C)C)c1`, for which the survivor count was 0 of 6 under setting [1] and 0 of 6 under setting [2].
Regarding `CC1(C)N=C(N)N=C(N)N1c1ccc(CCc2ccccc2)cc1`, the T/C (dose: 50.0 mg/kg/injection, schedule: Q01DX009 (ip), vehicle: saline) is 127 % of control. Moreover, the survivor count was 2 of 6 (dose: 100.0 mg/kg/injection, schedule: Q01DX009 (ip), vehicle: saline); 0 of 6 (dose: 150.0 mg/kg/injection, schedule: Q04DX003 (ip), vehicle: saline with Tween-80); 0 of 6 (dose: 200.0 mg/kg/injection, schedule: Q01DX009 (ip), vehicle: saline); 2 of 6 under setting [3].
As to `CC(C(O)c1ccc2cc(Br)c3ccccc3c2c1)N(C)C` (configuration not stated), under setting [4], the survivor count is recorded as 1 of 6.
Take `CC(C)N1CCC(Oc2ccc3ccccc3n2)C1` (configuration not stated): the survivor count under setting [5] is 0 of 6.
For `CCCCCCCCCCCCCCCCCC(N)=S`, the survivor count (dose: 100.0 mg/kg/injection, schedule: Q01DX005 (ip), vehicle: Klucel + Tween-80) is 5 of 6.
With `NC1=C(O)C(=O)C(c2ccccc2O)O1` (configuration not stated), under “dose: 60.0 mg/kg/injection, schedule: Q01DX005 (ip), vehicle: suspension in saline”, the survivor count is 5 of 6.
`C1=C(c2ccccc2)Oc2ccccc2[P+]1(c1ccccc1)c1ccccc1`: the survivor count is listed as 4 of 5 (dose: 6.25 mg/kg/injection, schedule: Q01DX005 (ip), vehicle: Klucel (hydroxypropylcellulose) (HPC)); 2 of 5 (dose: 12.5 mg/kg/injection, schedule: Q01DX005 (ip), vehicle: Klucel (hydroxypropylcellulose) (HPC)); 0 of 5 (dose: 25.0 mg/kg/injection, schedule: Q01DX005 (ip), vehicle: Klucel (hydroxypropylcellulose) (HPC)); 0 of 5 under setting [6]; 0 of 5 under setting [1]; 0 of 5 under setting [2].
`CN(C)CCN1CC2Cc3ccccc3C1c1ccccc12` (configuration not stated): the survivor count (dose: 400.0 mg/kg/injection, schedule: Q04DX003 (ip), vehicle: Klucel (hydroxypropylcellulose) (HPC)) is on record as 0 of 6.
For `C/C(=C\Cl)COC1CCCCO1` (configuration not stated), under setting [7], the T/C is 127 % of control.
For `CCCCCCC1N=C(N)N=C(N)N1c1cccc(Cl)c1` (configuration not stated), the survivor count was 0 of 5 and 3 of 5 under setting [6]; 0 of 5 under setting [1]; 0 of 5 under setting [2].
Take `CCN(CC)CC[n+]1ccc2c(C)c3[nH]c4ccccc4c3c(C)c2c1`: the T/C is, setting by setting: (dose: 1.25 mg/kg/injection, schedule: Q04DX002 (ip), vehicle: water) 125 % of control; (dose: 2.5 mg/kg/injection, schedule: Q04DX002 (ip), vehicle: water) 130 % of control; (dose: 3.12 mg/kg/injection, schedule: Q04DX003 (ip), vehicle: water) 127 % of control; (dose: 5.0 mg/kg/injection, schedule: Q04DX002 (ip), vehicle: water) 129 and 137 % of control; (dose: 6.25 mg/kg/injection, schedule: Q04DX003 (ip), vehicle: water) 125 % of control. Further, the survivor count by setting is: (dose: 10.0 mg/kg/injection, schedule: Q04DX002 (ip), vehicle: water) 1 of 6 and 4 of 6; (dose: 12.5 mg/kg/injection, schedule: Q04DX003 (ip), vehicle: water) 5 of 6; (dose: 20.0 mg/kg/injection, schedule: Q04DX002 (ip), vehicle: water) 0 of 6 and 5 of 6; (dose: 25.0 mg/kg/injection, schedule: Q04DX003 (ip), vehicle: water) 5 of 6; (dose: 40.0 mg/kg/injection, schedule: Q04DX002 (ip), vehicle: water) 2 of 6; (dose: 50.0 mg/kg/injection, schedule: Q04DX003 (ip), vehicle: water) 0 of 6. Moreover, the survivor count by setting is: (dose: 80.0 mg/kg/injection, schedule: Q04DX002 (ip), vehicle: water) 0 of 6; (dose: 100.0 mg/kg/injection, schedule: Q04DX003 (ip), vehicle: water) 0 of 6; (dose: 200.0 mg/kg/injection, schedule: Q04DX003 (ip), vehicle: water) 0 of 6.
Consider `COC1=C(C#N)C(c2ccccc2)CC(N)=N1` (configuration not stated), for which the survivor count (dose: 240.0 mg/kg/injection, schedule: Q01DX005 (ip), vehicle: Klucel (hydroxypropylcellulose) (HPC)) is 1 of 6.
Regarding `C1=C[N-]c2c3c(ccc2=C1)=CC=C[N-]3.C1=C[N-]c2c3c(ccc2=C1)=CC=C[N-]3.C1=C[N-]c2c3c(ccc2=C1)=CC=C[N-]3.[Co+3].[O-][Cl+3]([O-])([O-])O`, the survivor count is reported as 3 of 6 (dose: 60.0 mg/kg/injection, schedule: Q01DX005 (ip), vehicle: saline with Tween-80); 0 of 6 (dose: 120.0 mg/kg/injection, schedule: Q01DX005 (ip), vehicle: saline with Tween-80); 0 of 6 (dose: 240.0 mg/kg/injection, schedule: Q01DX005 (ip), vehicle: saline with Tween-80).
For `CS(=O)(=O)CCN(N=O)C(=N)N[N+](=O)[O-]`, the survivor count (dose: 50.0 mg/kg/injection, schedule: Q01DX009 (ip), vehicle: saline with Tween-80) is 6 of 6; the survivor count under setting [8] is recorded as 5 of 6; the survivor count under setting [7] was 1 of 6 and 2 of 6; the survivor count (dose: 400.0 mg/kg/injection, schedule: Q04DX003 (ip), vehicle: saline with Tween-80) was 1 of 6. Besides, the T/C under setting [8] is 136 % of control [5 of 6 alive]; the T/C (dose: 100.0 mg/kg/injection, schedule: Q04DX003 (ip), vehicle: saline with Tween-80) was 140 and 145 % of control; the T/C (dose: 200.0 mg/kg/injection, schedule: Q04DX003 (ip), vehicle: saline with Tween-80) was 131 % of control.
Regarding `Clc1ccc(Nc2c3ccccc3nc3c2cnn3-c2ccccc2)cc1`, the survivor count (dose: 60.0 mg/kg/injection, schedule: Q01DX005 (ip), vehicle: Klucel (hydroxypropylcellulose) (HPC)) is reported as 6 of 6.
On to `O=C1C=CC(=O)C(C2OC(=O)C(Cl)=C2Cl)=C1` (configuration not stated), for which the survivor count under setting [4] is reported as 2 of 6.
Regarding `O=c1cccc(C(Cl)(Cl)Cl)o1`, the survivor count under setting [9] is recorded as 0 of 6.
`Cc1cc(C)c(SSc2nnnn2C)c(C)c1`: the survivor count under setting [5] was 0 of 6.
Turning to `CC(=O)N1C=[N+](C)C(C)(C)C1`, under setting [3], the survivor count was 4 of 6.
On to `C[n+]1c(-c2cccc(OCCOCCOCCOc3cccc(-c4c5cc(N)ccc5c5ccc(N)cc5[n+]4C)c3)c2)c2cc(N)ccc2c2ccc(N)cc21`, for which the survivor count reads like this: (dose: 1.56 mg/kg/injection, schedule: Q01DX009 (ip), vehicle: water) 6 of 6; (dose: 3.12 mg/kg/injection, schedule: Q01DX009 (ip), vehicle: water) 5 of 6; (dose: 6.25 mg/kg/injection, schedule: Q01DX009 (ip), vehicle: water) 0 of 6; (dose: 12.5 mg/kg/injection, schedule: Q01DX009 (ip), vehicle: water) 0 of 6.
On to `C[Si](C)(C)N=S=N[Si](C)(C)C`, for which the survivor count under setting [4] is 2 of 6.
On the same count and under the same terms, for `CC1(C)NN=C2C(=CC=C3NNC(C)(C)N32)n2cccc21` the value was 3 of 6.
As to `COC1=C(OC)C(=O)C(SCCCCCCC2CCCCC2)=C(C)C1=O`, the survivor count under setting [9] was 2 of 6.
Turning to `COC(=O)C1=COC(C)C2CN3CCc4cc(OC)c(OC)cc4C3CC12` (configuration not stated), the survivor count is 0 of 6 (dose: 100.0 mg/kg/injection, schedule: Q04DX002 (ip), vehicle: saline with Tween-80); 0 of 6 (dose: 200.0 mg/kg/injection, schedule: Q04DX002 (ip), vehicle: saline with Tween-80); 0 of 6 (dose: 400.0 mg/kg/injection, schedule: Q04DX002 (ip), vehicle: saline with Tween-80).
